PubChem BioAssay AID652272, Drosophila RNAi Screening Center, 2013

Assay: 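Genes whose knock-down decreases or increases Hedgehog reporter output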 (primary screen)
Cells: Drosophila clone 8 (Cl8) cells
Knock-down reagent: long dsRNA against Drosophila genes
Detection: 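Firefly light from a Hedgehog-responsive ptc promoter reporter and Renilla reference light, both read on a plate reader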
Reading the numbers: firefly Hh reporter signal: higher = more ptc reporter light; Renilla reference signal: higher = more Renilla control light
Call rule: 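Called a hit if the two-replicate mean z-score lies below -2 or above +3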
Calls: active = hit: reporter lowered or raised; inactive = not a hit
In all, the deposit lists about 21,000 reagents; shown is an unselected part of those with a known target gene and a result. In the full data, 503 (2.4%) were called active. 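Raw plate light values, not normalised; calls rest on replicate z-scores that were not deposited; hits include reporter decreases as well as increases.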 Entries without a mark were called inactive. A plus sign joins genes that one reagent is predicted to hit. Not stated in the record: the amount of reagent, the time to read-out.

gene knocked down	amplicon	firefly Hh reporter signal, replicate 1	firefly Hh reporter signal, replicate 2	firefly Hh reporter signal, replicate 3	Renilla reference signal, replicate 1	Renilla reference signal, replicate 2
Cyp6a2	DRSC05014	1.23e5	68774		2891	4774
phr	DRSC07662	77042	39923		1977	2960
mim	DRSC05013	28160 (active)	10948		912	1386
poe	DRSC03593	1.25e5	41691		4994	2388
smog	DRSC00334	1.37e5	69650		3735	7376
smog	DRSC00335	1.14e5	37715		2898	3552
CG32447	DRSC11732	1.24e5	1.38e5		5149	5216
CG32447	DRSC11805	1.21e5	1.38e5		4657	4084
dnr1	DRSC03948	1.37e5	4.31e5		10488	17510
dnr1	DRSC04122	74432	47830		1540	5025

Limited to “firefly Hh reporter signal, replicate 1”, for 4 of the entries above:
mim [DRSC05013]: 28160 (active)
poe [DRSC03593]: 1.25e5
smog [DRSC00334]: 1.37e5
smog [DRSC00335]: 1.14e5

The listing continues.
gene knocked down	amplicon	firefly Hh reporter signal, replicate 1	firefly Hh reporter signal, replicate 2	firefly Hh reporter signal, replicate 3	Renilla reference signal, replicate 1	Renilla reference signal, replicate 2
CG31848	DRSC01309	4.38e5	2.90e5		21965	10758
CG12128 + CG1407	DRSC06446	80523	97812		3825	4108
Mst84Db	DRSC12542	1.05e5	1.25e5		3931	3952
Mst84Db	DRSC12598	69712	81061		2922	2994
CG42850 (retired record)	DRSC00872	5.18e5	89634		3513	3513
Hinfp	DRSC18484	65536	1.32e5		2648	5369
vkg	DRSC03632	1.07e5	57568		2482	5764
CG15452	DRSC20523	75156	2.14e5		1656	8710
CG43335	DRSC15764	67072	1.26e5		1940	2987
mal	DRSC20581	94273	1.05e5		2200	2584
Ppr-Y	DRSC20892	7.62e5	2.48e5		42918	6305
trn	DRSC11407	33851	55596	66416	6075	4217
eEF1delta	DRSC02790	32380 (active)	25033		2502	1512
